Assay: Sensory test of odor of the compound in liquid hair dye base first preparation by five special panelists
Set-up: key to odor (sensory test): C: odor is felt; B: odor is slightly felt; A: odor is hardly felt

Structure (SMILES)	odor (sensory test) (Amount added 0.00001 %)	odor (sensory test) (Amount added 0.0001 %)	odor (sensory test) (Amount added 0.001 %)	odor (sensory test) (Amount added 0.002 %)	odor (sensory test) (Amount added 0.005 %)	odor (sensory test) (Amount added 0.008 %)	odor (sensory test) (Amount added 0.01 %)	odor (sensory test) (Amount added 0.1 %)	amount to be added at which the odor is not an unpleasant odor (based on the total weight of a hair dye including a base)	odor (sensory test) (Amount added 0.02 %)	odor (sensory test) (Amount added 0.05 %)	odor (sensory test) (Amount added 0.08 %)	odor (sensory test) (Amount added 1 %)
CC1CCC(C(C)(C)S)C(=O)C1 (stereo not shown) [8-Mercaptomenthone]	A	A	A	A	A	A	B	C					
CC1=CCC(C(C)(C)S)CC1 (stereo not shown) [Limonenethiol]	A	A	A	B	C	C	C	C					
CC(C)=CCC/C(C)=C/CS [thiogeraniol, (E)-3,7-dimethyl-2,6-octadien-1-thiol]	A	A	A	B	C	C	C	C	≤ 0.002 % by weight				
OCCS [thioglycol, 2-mercaptoethanol]	A	A	A				A	C		A	B	C	C

— US7753966B2, “Hair dye stabilizer” (Takasago International Corporation, priority 2006, dated 2010)
